The chains behind the UniProt entries cited, without tags or fusion partners. Where a name states a change or a piece, a line headed by the entry shows the natural chain unless it says otherwise.
UniProt P38038: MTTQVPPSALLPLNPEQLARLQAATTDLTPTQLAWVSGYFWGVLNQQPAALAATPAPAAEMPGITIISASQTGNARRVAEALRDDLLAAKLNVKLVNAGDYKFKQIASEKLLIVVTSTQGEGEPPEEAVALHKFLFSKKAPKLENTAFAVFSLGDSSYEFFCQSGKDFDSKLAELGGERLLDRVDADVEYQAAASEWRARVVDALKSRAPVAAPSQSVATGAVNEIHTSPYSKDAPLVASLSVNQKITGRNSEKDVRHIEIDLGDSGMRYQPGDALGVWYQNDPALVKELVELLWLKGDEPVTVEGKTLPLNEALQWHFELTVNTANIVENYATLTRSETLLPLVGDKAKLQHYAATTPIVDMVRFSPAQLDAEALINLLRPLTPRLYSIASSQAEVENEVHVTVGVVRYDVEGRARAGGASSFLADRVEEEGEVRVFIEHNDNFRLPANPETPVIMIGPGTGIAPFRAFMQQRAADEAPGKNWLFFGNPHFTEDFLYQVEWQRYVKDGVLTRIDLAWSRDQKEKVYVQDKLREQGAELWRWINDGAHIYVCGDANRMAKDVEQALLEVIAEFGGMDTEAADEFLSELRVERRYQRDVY

According to article PMC11303004:

Biological target: T1, sulfite reductase hemoprotein (HP), as in the minimal SiRFP/HP dimer (UniProt P17846)
T1 sequence: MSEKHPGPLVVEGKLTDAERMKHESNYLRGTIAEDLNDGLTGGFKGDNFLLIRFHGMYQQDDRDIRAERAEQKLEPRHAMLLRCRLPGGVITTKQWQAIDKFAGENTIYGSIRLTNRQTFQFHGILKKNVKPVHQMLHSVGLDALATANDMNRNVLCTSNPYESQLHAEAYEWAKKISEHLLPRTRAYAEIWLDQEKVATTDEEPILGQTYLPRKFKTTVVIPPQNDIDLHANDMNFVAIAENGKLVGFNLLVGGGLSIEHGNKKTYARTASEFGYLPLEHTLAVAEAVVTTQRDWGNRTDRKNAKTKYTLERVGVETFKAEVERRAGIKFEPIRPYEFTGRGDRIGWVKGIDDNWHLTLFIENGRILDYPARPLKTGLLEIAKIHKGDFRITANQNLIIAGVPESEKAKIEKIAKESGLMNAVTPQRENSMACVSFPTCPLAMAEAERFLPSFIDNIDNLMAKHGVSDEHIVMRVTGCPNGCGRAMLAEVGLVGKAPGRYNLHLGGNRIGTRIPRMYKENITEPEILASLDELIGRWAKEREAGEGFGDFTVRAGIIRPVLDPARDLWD
Test: cryo-EM 2D class averages; SPOT-RASTR: SiRFP/HP at 0.2 mg/mL bound to Ni-NTA lipid nanotubes on the grid, plunge frozen; tube signal subtracted; 2D classes only, no 3D reconstruction; both purified

binding: binds
Substance: sulfite reductase flavoprotein (SiRFP), as in the minimal SiRFP/HP dimer (from UniProt P38038) (enzyme)

These are yes or no findings as the source states them, for the method shown. Binding can be weak; no strength is given.
